Assay results as given in US20140037624A1.
No constants are given. Whether binding was seen depends on the method and setting. Some binding calls cover weakened binding; strength is not graded here.

Amino acid sequences for entries named in this document (tags omitted). A change or cut given only in a name is not applied to a line headed by its entry.
UniProt P01027: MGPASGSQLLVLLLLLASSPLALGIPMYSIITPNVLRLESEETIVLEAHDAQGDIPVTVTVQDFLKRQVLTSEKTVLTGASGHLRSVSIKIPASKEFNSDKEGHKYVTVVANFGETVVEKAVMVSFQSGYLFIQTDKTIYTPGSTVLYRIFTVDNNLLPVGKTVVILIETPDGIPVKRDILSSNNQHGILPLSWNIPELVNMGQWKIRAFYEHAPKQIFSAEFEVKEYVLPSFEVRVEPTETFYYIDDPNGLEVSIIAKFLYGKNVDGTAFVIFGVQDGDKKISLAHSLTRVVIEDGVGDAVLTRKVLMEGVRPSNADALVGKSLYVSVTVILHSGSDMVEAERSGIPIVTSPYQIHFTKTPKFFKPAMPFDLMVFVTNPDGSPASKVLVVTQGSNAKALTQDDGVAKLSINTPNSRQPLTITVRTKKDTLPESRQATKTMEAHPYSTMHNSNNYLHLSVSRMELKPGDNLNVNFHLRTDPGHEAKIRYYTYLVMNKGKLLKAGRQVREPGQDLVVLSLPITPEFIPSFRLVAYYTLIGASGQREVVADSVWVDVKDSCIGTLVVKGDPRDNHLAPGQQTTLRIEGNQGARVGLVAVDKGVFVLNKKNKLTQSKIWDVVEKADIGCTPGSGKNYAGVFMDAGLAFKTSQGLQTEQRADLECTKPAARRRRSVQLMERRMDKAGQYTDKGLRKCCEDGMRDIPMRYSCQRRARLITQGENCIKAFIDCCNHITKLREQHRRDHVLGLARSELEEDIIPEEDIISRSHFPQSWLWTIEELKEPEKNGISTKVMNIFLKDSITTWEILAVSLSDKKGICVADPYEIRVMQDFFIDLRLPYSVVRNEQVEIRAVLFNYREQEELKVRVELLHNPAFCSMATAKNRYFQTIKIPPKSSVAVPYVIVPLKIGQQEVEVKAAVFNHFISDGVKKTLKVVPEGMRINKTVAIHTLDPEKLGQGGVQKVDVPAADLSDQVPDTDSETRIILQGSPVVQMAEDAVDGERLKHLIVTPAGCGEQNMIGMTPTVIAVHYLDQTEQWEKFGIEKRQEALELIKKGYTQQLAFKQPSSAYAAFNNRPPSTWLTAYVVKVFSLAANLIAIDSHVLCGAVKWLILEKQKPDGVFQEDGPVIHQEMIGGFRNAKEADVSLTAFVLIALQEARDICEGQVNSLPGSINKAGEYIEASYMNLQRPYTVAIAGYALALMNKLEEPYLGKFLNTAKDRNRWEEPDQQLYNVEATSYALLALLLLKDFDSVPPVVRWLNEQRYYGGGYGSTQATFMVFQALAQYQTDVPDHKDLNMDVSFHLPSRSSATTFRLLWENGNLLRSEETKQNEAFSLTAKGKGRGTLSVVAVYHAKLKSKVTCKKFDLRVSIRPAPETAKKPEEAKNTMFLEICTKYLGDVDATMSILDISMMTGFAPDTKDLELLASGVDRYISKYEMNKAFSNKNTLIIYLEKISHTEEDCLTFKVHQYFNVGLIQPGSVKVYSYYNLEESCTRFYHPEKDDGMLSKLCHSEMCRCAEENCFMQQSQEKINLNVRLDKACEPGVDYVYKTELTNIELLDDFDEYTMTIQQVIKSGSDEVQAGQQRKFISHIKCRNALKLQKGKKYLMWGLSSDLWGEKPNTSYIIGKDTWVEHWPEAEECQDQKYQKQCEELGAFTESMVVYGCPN

What was measured:
[1] = biological target: T1, human FGFR4 (recombinant, construct not stated; SPR, FGFR4 ELISA, receptor-binding assay) (human) (UniProt P22455); experiment: surface plasmon resonance
T1 sequence: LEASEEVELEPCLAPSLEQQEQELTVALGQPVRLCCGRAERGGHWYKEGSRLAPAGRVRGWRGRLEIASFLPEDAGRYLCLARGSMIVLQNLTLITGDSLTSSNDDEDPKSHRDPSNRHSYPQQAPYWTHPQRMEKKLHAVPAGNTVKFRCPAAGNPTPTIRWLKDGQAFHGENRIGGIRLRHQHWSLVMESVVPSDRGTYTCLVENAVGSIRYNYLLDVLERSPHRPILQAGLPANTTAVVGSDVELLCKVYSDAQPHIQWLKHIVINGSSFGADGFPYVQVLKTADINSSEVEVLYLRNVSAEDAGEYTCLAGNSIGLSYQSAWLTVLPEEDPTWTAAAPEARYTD

[2] = biological target: T1, human FGFR4 (recombinant, construct not stated; SPR, FGFR4 ELISA, receptor-binding assay) (human); experiment: FGFR4 ELISA, FGFR4 immobilized
[3] = biological target: mouse complement C3 (ca. 37 kDa fragment, C3d, from mouse plasma) (mouse) (UniProt P01027); experiment: immunoprecipitation from mouse plasma, MS/MS
[4] = biological target: mouse complement C3 (ca. 37 kDa fragment, C3d, from mouse plasma) (mouse) (UniProt P01027); experiment: immunoprecipitation from NCR nude mouse plasma, SDS-PAGE
[5] = biological target: mouse complement C3 (ca. 37 kDa fragment, C3d, from mouse plasma) (mouse) (UniProt P01027); experiment: protein-G pull-down from serum of dosed mice, SDS-PAGE (FIG. 16D)
[6] = biological target: mouse complement C3 (ca. 37 kDa fragment, C3d, from mouse plasma) (mouse) (UniProt P01027); experiment: immunoprecipitation from NCR nude mouse plasma, SDS-PAGE (FIG. 13B)
[7] = biological target: mouse complement C3 (ca. 37 kDa fragment, C3d, from mouse plasma) (mouse) (UniProt P01027); experiment: protein-G pull-down from serum of mice 2 h after dosing, SDS-PAGE
[8] = biological target: T1, human FGFR4 (recombinant, construct not stated; SPR, FGFR4 ELISA, receptor-binding assay) (human); experiment: FGFR4 ELISA (immobilized FGFR4), O.D. 450 nm against IgG concentration
[9] = biological target: mouse complement C3 (ca. 37 kDa fragment, C3d, from mouse plasma) (mouse) (UniProt P01027); experiment: size-exclusion HPLC fractions, protein-G pull-down, SDS-PAGE; MS/MS coverage of mouse C3 (FIG. 12C, 12D)
[10] = biological target: mouse complement C3 (ca. 37 kDa fragment, C3d, from mouse plasma) (mouse) (UniProt P01027); experiment: immunoprecipitation from mouse plasma, SDS-PAGE, band identified by MS/MS as derived from mouse complement C3
[11] = biological target: mouse complement C3 (ca. 37 kDa fragment, C3d, from mouse plasma) (mouse) (UniProt P01027); experiment: protein-G pull-down from size-exclusion fractions of mouse plasma incubated with antibody, SDS-PAGE, Coomassie
[12] = biological target: mouse complement C3 (ca. 37 kDa fragment, C3d, from mouse plasma) (mouse) (UniProt P01027); experiment: size-exclusion HPLC of 125I-hLD1.vB in mouse plasma (axis 10 to 20, unit not given); partner named by the filing through the pull-down of FIG. 12C
[13] = biological target: mouse complement C3 (ca. 37 kDa fragment, C3d, from mouse plasma) (mouse) (UniProt P01027); experiment: size-exclusion HPLC of 125I-antibody incubated in mouse plasma; the filing finds the ca. 37 kDa C3 fragment in the fractions of the 270 kDa peak (FIG. 12C)
[14] = biological target: mouse complement C3 (ca. 37 kDa fragment, C3d, from mouse plasma) (mouse) (UniProt P01027); experiment: size-exclusion HPLC of serum from mice dosed with 125I-hLD1.vB (axis 15 to 25, unit not given); partner named by the filing through the pull-down of FIG. 16D

Measured: binding

B1: hLD1.vB (humanized LD1 with light chain P44F, L46I, Y49S) (antibody, V domains shown)
VH: EVQLVESGGGLVQPGGSLRLSCAASGYTFTNHWMNWVRQAPGKGLEWVGMIHPSDSETTLDQKFKDRFTISADTSKNTAYLQMNSLRAEDTAVYYCTRGDISLFDYWGQGTLVTVSS
VL: DIQMTQSPSSLSASVGDRVTITCRTSQDISNFLNWYQQKPGKAFKILISYTSRLHSGVPSRFSGSGSGTDFTLTISSLQPEDFATYYCQQGNALPYTFGQGTKVEIK
binds: all assays above

B2: hLD1.v22 (humanized and affinity matured LD1) (antibody, V domains shown)
VH: EVQLVESGGGLVQPGGSLRLSCAASGYTFTNHWMNWVRQAPGKGLEWVGMILPVDSETTLEQKFKDRFTISADTSKNTAYLQMNSLRAEDTAVYYCTRGDISLFDYWGQGTLVTVSS
VL: DIQMTQSPSSLSASVGDRVTITCRTSQDISNFLNWYQQKPGKAFKILISYTSRLHSGVPSRFSGSGSGTDFTLTISSLQPEDFATYYCQQGNALPYTFGQGTKVEIKR
binds: [1]
